Assay results: the supplement of paper PMC12823440, “Inhibitors supercharge kinase turnover through native proteolytic circuits” (Nature, 2025)
Counter-ions that a name gives are not always drawn. The list shows a part of the results. Hit calls seldom repeat between salt and free forms of one compound.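 Kinases were expressed as nanoluciferase fusions in K562 cells and luminescence was read every 4 h between 2 and 18 h as percent of control, DMSO set to 100% and a positive control to 0%. A time point counts as decreased when the signal drops significantly (2 sigma). The hit call is the authors' own, does not follow from the count of time points alone, and its rule is not shown.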

Sequences of proteins named here, by UniProt entry; tags and fusion partners are left off. A change or cut given only in a name is not applied to a line headed by its entry.
UniProt Q14289, whole entry, looked up: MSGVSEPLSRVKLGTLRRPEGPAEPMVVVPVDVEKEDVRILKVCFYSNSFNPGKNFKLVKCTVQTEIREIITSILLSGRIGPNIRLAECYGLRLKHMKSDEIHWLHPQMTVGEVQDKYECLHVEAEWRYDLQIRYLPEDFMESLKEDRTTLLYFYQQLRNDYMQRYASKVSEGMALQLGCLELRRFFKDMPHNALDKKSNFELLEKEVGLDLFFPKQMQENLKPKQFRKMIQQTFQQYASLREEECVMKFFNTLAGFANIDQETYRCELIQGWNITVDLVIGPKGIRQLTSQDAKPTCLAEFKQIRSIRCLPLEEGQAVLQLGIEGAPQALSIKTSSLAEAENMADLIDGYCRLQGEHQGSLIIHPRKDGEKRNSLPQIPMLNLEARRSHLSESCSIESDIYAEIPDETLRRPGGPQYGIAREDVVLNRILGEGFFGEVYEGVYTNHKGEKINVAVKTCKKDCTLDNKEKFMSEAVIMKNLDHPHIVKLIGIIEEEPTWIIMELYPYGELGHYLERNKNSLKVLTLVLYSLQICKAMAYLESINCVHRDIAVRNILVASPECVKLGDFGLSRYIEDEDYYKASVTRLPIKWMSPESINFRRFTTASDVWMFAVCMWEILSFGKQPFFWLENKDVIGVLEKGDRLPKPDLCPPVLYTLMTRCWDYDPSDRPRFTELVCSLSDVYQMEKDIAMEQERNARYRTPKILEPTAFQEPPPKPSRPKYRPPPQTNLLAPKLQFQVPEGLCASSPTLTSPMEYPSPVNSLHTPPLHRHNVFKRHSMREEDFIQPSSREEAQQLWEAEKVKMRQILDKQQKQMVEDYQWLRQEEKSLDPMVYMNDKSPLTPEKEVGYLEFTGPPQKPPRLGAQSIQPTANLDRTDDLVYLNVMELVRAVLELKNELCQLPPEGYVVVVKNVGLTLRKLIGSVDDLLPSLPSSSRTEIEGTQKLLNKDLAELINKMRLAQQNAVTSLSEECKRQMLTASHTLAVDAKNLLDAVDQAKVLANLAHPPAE
UniProt P07949, whole entry, looked up: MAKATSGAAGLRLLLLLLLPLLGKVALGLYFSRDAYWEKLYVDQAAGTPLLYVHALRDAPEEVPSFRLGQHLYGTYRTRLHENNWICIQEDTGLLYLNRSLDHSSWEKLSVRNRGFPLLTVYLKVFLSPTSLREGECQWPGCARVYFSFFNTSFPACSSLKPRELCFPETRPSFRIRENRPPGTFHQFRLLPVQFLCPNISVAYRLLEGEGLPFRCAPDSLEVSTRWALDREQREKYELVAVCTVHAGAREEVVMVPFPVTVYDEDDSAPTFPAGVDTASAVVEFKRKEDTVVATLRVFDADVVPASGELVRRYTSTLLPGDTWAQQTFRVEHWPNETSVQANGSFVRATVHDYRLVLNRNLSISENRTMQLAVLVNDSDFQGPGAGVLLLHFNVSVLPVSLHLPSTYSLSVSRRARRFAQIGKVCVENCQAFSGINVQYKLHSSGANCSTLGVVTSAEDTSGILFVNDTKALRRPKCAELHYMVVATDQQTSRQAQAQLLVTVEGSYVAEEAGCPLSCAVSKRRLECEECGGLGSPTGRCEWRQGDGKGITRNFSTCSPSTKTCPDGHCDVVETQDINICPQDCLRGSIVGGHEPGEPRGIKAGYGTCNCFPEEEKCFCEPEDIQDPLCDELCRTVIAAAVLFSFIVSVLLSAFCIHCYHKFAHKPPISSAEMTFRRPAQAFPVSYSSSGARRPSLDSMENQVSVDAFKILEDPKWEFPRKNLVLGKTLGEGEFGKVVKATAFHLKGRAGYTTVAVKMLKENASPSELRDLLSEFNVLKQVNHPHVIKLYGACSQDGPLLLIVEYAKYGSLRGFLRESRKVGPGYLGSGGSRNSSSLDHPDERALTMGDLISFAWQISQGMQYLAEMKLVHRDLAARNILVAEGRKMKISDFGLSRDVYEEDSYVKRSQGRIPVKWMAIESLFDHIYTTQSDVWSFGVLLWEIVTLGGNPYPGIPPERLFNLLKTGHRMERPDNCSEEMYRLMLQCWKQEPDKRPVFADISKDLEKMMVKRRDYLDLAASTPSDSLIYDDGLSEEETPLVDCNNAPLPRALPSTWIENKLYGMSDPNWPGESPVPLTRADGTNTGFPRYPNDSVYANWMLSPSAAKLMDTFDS
UniProt P07949, whole entry M918T, looked up: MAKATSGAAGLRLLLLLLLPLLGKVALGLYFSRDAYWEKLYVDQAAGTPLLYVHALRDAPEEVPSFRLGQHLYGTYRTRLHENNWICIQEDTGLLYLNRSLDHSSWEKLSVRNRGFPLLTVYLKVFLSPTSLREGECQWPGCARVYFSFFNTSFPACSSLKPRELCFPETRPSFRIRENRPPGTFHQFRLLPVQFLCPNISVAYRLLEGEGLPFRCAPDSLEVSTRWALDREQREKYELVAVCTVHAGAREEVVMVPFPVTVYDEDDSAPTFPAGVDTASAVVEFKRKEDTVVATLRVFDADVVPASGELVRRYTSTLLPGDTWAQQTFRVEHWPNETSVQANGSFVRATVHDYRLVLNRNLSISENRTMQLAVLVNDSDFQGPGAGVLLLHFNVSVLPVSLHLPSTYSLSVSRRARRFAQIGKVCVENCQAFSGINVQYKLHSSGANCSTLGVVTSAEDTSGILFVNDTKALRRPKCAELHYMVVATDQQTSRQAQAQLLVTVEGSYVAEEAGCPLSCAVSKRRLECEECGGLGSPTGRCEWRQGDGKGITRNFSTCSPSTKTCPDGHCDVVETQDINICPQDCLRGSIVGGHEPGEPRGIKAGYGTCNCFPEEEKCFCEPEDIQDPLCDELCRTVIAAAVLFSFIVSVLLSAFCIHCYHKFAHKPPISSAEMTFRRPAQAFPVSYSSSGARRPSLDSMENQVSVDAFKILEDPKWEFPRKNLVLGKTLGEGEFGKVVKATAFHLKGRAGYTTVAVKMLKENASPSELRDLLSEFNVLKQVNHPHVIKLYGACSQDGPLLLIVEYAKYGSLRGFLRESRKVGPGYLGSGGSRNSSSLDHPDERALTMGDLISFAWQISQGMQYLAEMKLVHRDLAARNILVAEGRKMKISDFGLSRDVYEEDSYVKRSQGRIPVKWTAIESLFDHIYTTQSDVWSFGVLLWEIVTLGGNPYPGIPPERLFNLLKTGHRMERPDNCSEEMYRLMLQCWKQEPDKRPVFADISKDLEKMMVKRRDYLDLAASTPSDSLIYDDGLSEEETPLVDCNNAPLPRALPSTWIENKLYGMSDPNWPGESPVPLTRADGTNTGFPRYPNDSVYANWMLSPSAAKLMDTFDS
UniProt Q13546: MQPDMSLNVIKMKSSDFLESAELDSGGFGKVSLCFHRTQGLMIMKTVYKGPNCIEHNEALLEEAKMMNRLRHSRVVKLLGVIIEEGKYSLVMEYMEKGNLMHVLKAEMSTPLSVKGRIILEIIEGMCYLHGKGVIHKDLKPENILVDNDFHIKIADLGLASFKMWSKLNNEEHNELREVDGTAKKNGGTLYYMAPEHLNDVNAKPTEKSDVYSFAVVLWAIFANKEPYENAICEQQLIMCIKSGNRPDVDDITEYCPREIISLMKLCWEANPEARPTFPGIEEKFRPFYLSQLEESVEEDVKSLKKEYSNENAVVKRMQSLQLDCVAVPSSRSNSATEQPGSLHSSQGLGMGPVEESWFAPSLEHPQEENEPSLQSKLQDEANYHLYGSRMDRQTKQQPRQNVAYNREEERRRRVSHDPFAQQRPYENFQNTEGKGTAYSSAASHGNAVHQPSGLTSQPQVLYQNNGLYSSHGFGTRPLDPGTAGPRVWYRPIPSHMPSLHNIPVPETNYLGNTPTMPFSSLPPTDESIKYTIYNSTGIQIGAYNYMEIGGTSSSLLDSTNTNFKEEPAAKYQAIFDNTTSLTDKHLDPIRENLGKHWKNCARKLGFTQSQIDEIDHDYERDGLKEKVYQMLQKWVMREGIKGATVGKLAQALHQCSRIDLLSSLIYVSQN
UniProt Q01974, whole entry: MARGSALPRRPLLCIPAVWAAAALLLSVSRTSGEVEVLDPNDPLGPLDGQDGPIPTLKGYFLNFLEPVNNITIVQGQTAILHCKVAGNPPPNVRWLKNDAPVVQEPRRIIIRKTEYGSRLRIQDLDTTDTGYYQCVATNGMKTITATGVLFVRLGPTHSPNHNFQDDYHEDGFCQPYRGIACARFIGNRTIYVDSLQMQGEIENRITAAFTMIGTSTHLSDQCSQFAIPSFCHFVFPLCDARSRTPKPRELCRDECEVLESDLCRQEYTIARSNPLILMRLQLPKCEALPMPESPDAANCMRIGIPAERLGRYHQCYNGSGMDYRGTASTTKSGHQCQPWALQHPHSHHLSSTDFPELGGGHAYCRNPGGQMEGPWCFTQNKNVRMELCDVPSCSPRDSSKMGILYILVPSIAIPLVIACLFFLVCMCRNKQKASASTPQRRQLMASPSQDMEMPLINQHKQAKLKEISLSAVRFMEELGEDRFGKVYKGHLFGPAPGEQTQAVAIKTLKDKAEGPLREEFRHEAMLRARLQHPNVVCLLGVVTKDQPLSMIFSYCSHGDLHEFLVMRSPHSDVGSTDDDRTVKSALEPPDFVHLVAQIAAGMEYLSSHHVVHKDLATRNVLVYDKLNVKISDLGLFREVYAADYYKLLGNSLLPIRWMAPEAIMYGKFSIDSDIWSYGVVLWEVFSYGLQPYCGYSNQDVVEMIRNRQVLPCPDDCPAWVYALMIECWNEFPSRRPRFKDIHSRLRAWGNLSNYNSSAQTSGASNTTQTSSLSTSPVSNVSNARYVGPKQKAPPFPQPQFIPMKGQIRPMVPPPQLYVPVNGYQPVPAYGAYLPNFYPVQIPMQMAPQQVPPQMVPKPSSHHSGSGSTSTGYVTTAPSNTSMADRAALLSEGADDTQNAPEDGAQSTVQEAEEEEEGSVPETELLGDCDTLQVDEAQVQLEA
UniProt Q9Y6E0: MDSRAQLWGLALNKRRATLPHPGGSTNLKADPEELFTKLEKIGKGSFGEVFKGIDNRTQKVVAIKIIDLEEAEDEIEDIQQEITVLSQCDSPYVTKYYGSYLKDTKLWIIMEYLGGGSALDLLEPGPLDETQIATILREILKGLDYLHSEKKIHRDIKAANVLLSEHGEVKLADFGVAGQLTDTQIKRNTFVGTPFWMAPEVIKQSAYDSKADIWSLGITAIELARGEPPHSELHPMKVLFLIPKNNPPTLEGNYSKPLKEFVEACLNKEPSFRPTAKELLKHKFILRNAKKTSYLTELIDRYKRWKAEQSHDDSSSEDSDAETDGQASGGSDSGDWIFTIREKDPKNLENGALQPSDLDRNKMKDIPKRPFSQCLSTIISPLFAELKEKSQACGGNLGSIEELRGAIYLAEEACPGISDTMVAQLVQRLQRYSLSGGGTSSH
UniProt P29597: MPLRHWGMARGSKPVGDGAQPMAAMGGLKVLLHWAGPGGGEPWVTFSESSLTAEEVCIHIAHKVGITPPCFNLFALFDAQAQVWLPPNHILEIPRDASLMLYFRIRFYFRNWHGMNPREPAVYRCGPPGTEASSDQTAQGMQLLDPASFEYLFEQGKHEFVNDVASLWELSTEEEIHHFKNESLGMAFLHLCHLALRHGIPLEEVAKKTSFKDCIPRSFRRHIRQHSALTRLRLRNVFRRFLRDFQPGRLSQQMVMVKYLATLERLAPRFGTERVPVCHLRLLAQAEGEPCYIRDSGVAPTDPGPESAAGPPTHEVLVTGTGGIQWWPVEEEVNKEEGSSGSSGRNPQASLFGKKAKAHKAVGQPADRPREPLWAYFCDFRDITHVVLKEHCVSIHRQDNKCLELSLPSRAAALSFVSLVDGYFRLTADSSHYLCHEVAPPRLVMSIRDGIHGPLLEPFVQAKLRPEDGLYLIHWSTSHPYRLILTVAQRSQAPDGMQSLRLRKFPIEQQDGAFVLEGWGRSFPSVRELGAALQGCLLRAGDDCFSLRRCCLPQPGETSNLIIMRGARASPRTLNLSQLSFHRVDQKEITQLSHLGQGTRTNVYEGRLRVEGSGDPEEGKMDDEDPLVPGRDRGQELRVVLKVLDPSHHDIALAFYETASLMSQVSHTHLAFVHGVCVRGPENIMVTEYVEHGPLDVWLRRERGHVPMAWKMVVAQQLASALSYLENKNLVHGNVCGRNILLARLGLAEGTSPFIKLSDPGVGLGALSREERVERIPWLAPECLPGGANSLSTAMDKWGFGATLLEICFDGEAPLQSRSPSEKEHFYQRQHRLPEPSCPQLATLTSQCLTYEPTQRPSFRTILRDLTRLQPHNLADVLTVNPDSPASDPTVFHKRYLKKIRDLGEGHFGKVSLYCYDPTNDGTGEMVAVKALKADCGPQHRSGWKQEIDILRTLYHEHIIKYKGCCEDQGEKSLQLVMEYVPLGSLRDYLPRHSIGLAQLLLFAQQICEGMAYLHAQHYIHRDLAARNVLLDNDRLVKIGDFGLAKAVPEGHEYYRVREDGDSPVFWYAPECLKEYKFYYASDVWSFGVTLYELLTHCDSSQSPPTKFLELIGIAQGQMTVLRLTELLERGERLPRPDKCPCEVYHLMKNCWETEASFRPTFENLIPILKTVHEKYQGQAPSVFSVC

Columns and labels:
Assay in all cases: number of time points (of 5) at which kinase-Nluc abundance scored as decreased, DMSO-normalised (count); higher = more persistent destabilization
Details in all cases: K562; 2-18 h
PRKCA = PRKCA (UniProt P17252)
PTK2 = PTK2 (UniProt Q05397)
PTK2B = PTK2B (UniProt Q14289)
RAF1 = RAF1 (UniProt P04049)
[1] = molecular target: RAF1_S257L (clone: RAF1_mut) (UniProt P04049)
RET = RET (UniProt P07949)
[2] = molecular target: RET_M918T (clone: RET_mut) (UniProt P07949)
RIOK1 = RIOK1 (UniProt Q9BRS2)
RIPK1 = RIPK1 (UniProt Q13546)
RIPK2 = RIPK2 (UniProt O43353)
ROR2 = ROR2 (UniProt Q01974)
RPS6KA1 = RPS6KA1 (UniProt Q15418)
SPHK1 = SPHK1 (UniProt Q9NYA1)
SRC = SRC (UniProt P12931)
STK24 = STK24 (UniProt Q9Y6E0)
STK38 = STK38 (UniProt Q15208)
SYK = SYK (UniProt P43405)
TEC = TEC (UniProt P42680)
TYK2 = TYK2 (UniProt P29597)
ULK3 = ULK3 (UniProt Q6PHR2)

Measured: number of time points

O=[N+]([O-])c1cc(C(F)(F)F)cc([N+](=O)[O-])c1NNC(=S)Nc1ccc(F)cc1 (10 µM)
0: all assays above

CC(C)c1cnc(-c2cc(Cl)ccc2F)cc1Nc1ccncc1C(=O)NC(CO)CO (2.5 µM)
0: all assays above

CCOc1ccc(C(=O)Nc2ncc([N+](=O)[O-])s2)cc1 (10 µM)
2: TYK2
0: all other assays above

CC(=O)c1c(C)c2cnc(Nc3ccc(N4CCN(CCCCNC(=O)COc5cccc6c5C(=O)N(C5CCC(=O)NC5=O)C6=O)CC4)cn3)nc2n(C2CCCC2)c1=O (stereo not given) (10 µM)
0: all assays above

Nc1ncnc2c1c(-c1ccc(Oc3ccccc3)cc1)nn2C1CCCNC1 (racemic) (2.5 µM)
0: all assays above

COc1ccc(C2CC(c3ccccc3)=NN2c2ccc(S(N)(=O)=O)cc2)cc1 (stereo not given) (10 µM)
0: all assays above

Gathered by group, the compounds so far with a nitro group on carbon
O=[N+]([O-])c1cc(C(F)(F)F)cc([N+](=O)[O-])c1NNC(=S)Nc1ccc(F)cc1 (10 µM)
0: all assays above

CCOc1ccc(C(=O)Nc2ncc([N+](=O)[O-])s2)cc1 (10 µM)
2: TYK2
0: all other assays above

Continued:

COc1ccc(C(=C2C(=O)Nc3ccccc32)c2ccc(OC)cc2)cc1 (10 µM)
1: [1] | [2]
0: all other assays above

CC(C)=CCC[C@](C)(O[C@@H]1O[C@H](CO)[C@@H](O)[C@H](O)[C@H]1O)[C@H]1CC[C@]2(C)[C@@H]1[C@H](O)C[C@@H]1[C@@]3(C)CC[C@H](O)C(C)(C)[C@@H]3[C@@H](O[C@@H]3O[C@H](CO)[C@@H](O)[C@H](O)[C@H]3O[C@@H]3O[C@@H](C)[C@H](O)[C@@H](O)[C@H]3O)C[C@]12C [Ginsenoside Re] (10 µM)
0: all assays above

CCOc1cc(C(=O)N2CCC(N3CCN(C)CC3)CC2)ccc1Nc1ncc2c(n1)N(C1CCCC1)c1ccccc1C(=O)N2C (10 µM)
0: all assays above

Cn1cnc(-c2cc3nccc(Oc4ccc(NC(=S)NC(=O)Cc5ccccc5)cc4F)c3s2)c1 [MGCD-265 analog] (10 µM)
1: RIPK1 | RPS6KA1
5: PTK2
4: STK24 | TEC | ULK3
3: ROR2 | SPHK1
0: all other assays above

CC(=O)N1CCN(c2cc(-c3cc(C(F)(F)F)c4c(N)ncnn34)ccc2C#N)C(=O)C1(C)C (10 µM)
0: all assays above

CC[C@@]1(c2ccccc2)C2=C(CC(C)(C)CC2=O)Nc2[nH]ncc21 (10 µM)
0: all assays above

CC(C)(NS(=O)(=O)c1ccc2c(Cl)cnc(N=C(N)N)c2c1)C(=O)O (10 µM)
0: all assays above

CO[C@H]1C[C@@H]2CC[C@@H](C)[C@@](O)(O2)C(=O)C(=O)N2CCCC[C@H]2C(=O)O[C@H]([C@H](C)C[C@@H]2CC[C@@H](O)[C@H](OC)C2)CC(=O)[C@H](C)/C=C(\C)[C@@H](O)[C@@H](OC)C(=O)[C@H](C)C[C@H](C)/C=C/C=C/C=C/1C [Rapamycin] (10 µM)
0: all assays above

CC(C)(C)c1ccc(S(=O)(=O)Nc2ccc(-n3ccnc3)cc2)cc1 (10 µM)
0: all assays above

Cc1ccc(-c2c(C(=O)CCl)n(CCCO)c3ncnc(N)c23)cc1 (10 µM)
2: PTK2 | PTK2B | RAF1
1: STK38 | SYK
4: RET | [2] | RIPK2
3: RIPK1 | TEC | TYK2 | ULK3
0: all other assays above

O=C(Nc1cc(Oc2cc(F)c(NC(=O)C3(C(=O)Nc4ccc(F)cc4)CC3)cc2F)ccn1)C1CC1 [Altiratinib] (10 µM)
4: PTK2 | SPHK1
0: all other assays above

COc1ccc2c(c1O)OC(C)(C)c1c-2ccc2c1C(=O)N(c1ccc(C(=O)c3ccccc3)cc1)C2=O [Ampkinone] (10 µM)
0: all assays above

COc1cc(S(C)(=O)=O)ccc1Nc1nc2ccc(-c3ccc(NC(=O)[C@H](C)c4ccc(F)cc4)cc3)cn2n1 [Empesertib] (10 µM)
0: all assays above

CC1CCc2nc(N)c(C#N)c(-c3cccnc3)c2C1 (stereo not given) (10 µM)
0: all assays above

C=CC(=O)Nc1cccc(C)c1Nc1ncc2cc(-c3c(Cl)c(OC)cc(OC)c3Cl)ccc2n1 (2.5 µM)
2: ULK3
4: [1]
1: RIOK1
0: all other assays above

COCCO[C@@H]1[C@H](O)[C@@H](CO)O[C@H]1n1cnc2c(=O)[nH]c(N)nc21 [2′-O-(2-Methoxyethyl)guanosine] (10 µM)
0: all assays above

OCCNC1CCCc2c1[nH]c1ccc(-c3ccccc3)cc21 (stereo not given) (2.5 µM)
1: RAF1 | TYK2 | ULK3
2: SPHK1
0: all other assays above

CC(c1ccc(-c2cnc3c(-c4ccc(S(N)(=O)=O)c5ccccc45)cnn3c2)cc1)N1CCCC1 (stereo not given) (2.5 µM)
0: all assays above

O=C1Nc2nc(-c3c(O)cccc3OCC3CC3)cc([C@@H]3CCCNC3)c2CO1 [Bay 65-1942 (hydrochloride)] (10 µM)
2: [1]
3: RIPK1 | RIPK2 | TEC
0: all other assays above

CCN1CCN(Cc2ccc(Nc3ncc(F)c(-c4cc(F)c5nc(CO)n(C(C)C)c5c4)n3)nc2)CC1 [Abemaciclib metabolite M20] (2 µM)
3: PTK2
0: all other assays above

COCCOc1ccc(-c2cn(-c3ccccc3)c3nc[nH]c(=O)c23)cc1 (10 µM)
0: all assays above

O=C(O)c1cc(O)ccc1O [2,5-Dihydroxybenzoic acid] (10 µM)
0: all assays above

Cc1ccc(-c2c(C(=O)CF)n(CCCO)c3ncnc(N)c23)cc1 (10 µM)
0: all assays above

CC1=C2C(=O)O[C@@H](c3ccoc3)[C@]2(C)CCC1 [Fraxinellone] (10 µM)
0: all assays above

O=c1oc2cc(O)ccc2c2ccccc12 [Urolithin B] (10 µM)
0: all assays above

Cc1cc(Nc2nc(N[C@@H](C)c3ccc(F)cc3)c(C#N)cc2F)n[nH]1 (10 µM)
0: all assays above

Cn1cc(Nc2nccc(N3C[C@H]4CC[C@@H](C3)N4C(=O)[C@@H]3CC3(F)F)n2)cn1 (10 µM)
0: all assays above

COc1ncc(-c2nc(N3CCOCC3)nc3c(CN4CCC(C(C)(C)O)CC4)cc(F)cc23)cc1NS(C)(=O)=O [Linperlisib] (10 µM)
0: all assays above

Cc1ccc(S(=O)(=O)Nc2ccccc2C=Nc2ccccc2NS(=O)(=O)c2ccc(C)cc2)cc1 (10 µM)
0: all assays above

COc1cc(N2CCC(N3CCN(C)CC3)CC2)ccc1Nc1ncc(Cl)c(Nc2ccccc2P(C)(C)=O)n1 [Brigatinib] (2 µM)
3: [1]
1: PTK2
0: all other assays above

C[C@@H](c1ccc2nccn2c1)n1nnc2ncc(-c3cnn(C)c3)nc21 [Savolitinib] (10 µM)
0: all assays above

CC(C)(C)NC(=O)c1cncn1C1CCN(c2ccc(-c3nnc(C(F)(F)F)o3)cn2)CC1 (10 µM)
0: all assays above

O=C(NCCO)c1ccc2c(c1)nc(Nc1cccc(Cl)c1)c1ccncc12 [CK2 inhibitor 2] (10 µM)
0: all assays above

N#CC(c1ccnc(NCCc2cccnc2)n1)c1nc2ccccc2s1 (stereo not given) (10 µM)
0: all assays above

O=c1cc(O)cc(/C=C/c2ccc(O)c(O)c2)o1 [Hispidin] (10 µM)
0: all assays above

CNC(=O)c1ccc(-c2cnc3cnc(C(=O)N(C)c4ccc(Cl)cc4)cn23)cc1 (2.5 µM)
0: all assays above

C=C(CCC=C(C)C)[C@H]1CC[C@]2(C)[C@@H]1[C@H](O)C[C@@H]1[C@@]3(C)CC[C@H](O[C@@H]4O[C@H](CO)[C@@H](O)[C@H](O)[C@H]4O[C@@H]4O[C@H](CO)[C@@H](O)[C@H](O)[C@H]4O)C(C)(C)[C@@H]3CC[C@]12C [Ginsenoside Rk1] (10 µM)
0: all assays above

Cc1c(CN2CCN(S(C)(=O)=O)CC2)sc2c(N3CCOCC3)nc(-c3cnc(N)nc3)nc12 (2.5 µM)
1: SPHK1
3: PTK2
0: all other assays above

COc1cc(C(N)=O)nc(-c2cccc(C#C[C@]3(O)CCN(C)C3=O)c2)c1 (10 µM)
0: all assays above

Cc1ccc(S(=O)(=O)/C=C/C#N)cc1 (10 µM)
0: all assays above

CN1CCN(c2ccc(C(=O)Nc3cc(-c4cccc(NS(=O)(=O)c5ccccc5)c4)[nH]n3)cc2)CC1 [BPR1J-097 Hydrochloride] (2.5 µM)
1: [1] | ULK3
0: all other assays above
